PubChem BioAssay AID1159584, Peter MacCallum Cancer Centre | 2016

- Aim: 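Genes whose loss is lethal only together with E-cadherin loss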 (primary screen)
- Cells: human MCF10A breast epithelial cells, parental and CDH1-null
- Knock-down reagent: siRNA against human genes
- Read-out: 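Cell viability by CellTiter-Glo ATP luminescence, each line scaled to the mean of mock wells across plates, then CDH1-null over parental ratio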
- Reading the numbers: CDH1-null / parental viability ratio: higher = CDH1-null cells survive relatively better than parental
This is a random part of about 18,000 reagents. Not all columns of the deposit are shown. Reagent sequences are not shown. Not given: the amount of reagent, the time to read-out.

MAP1LC3B (microtubule associated protein 1 light chain 3 beta): CDH1-null / parental viability ratio = 1.11
ZNF276 (zinc finger protein 276): CDH1-null / parental viability ratio = 1.02
FCGRT (Fc gamma receptor and transporter): CDH1-null / parental viability ratio = 0.95
ATP1A1 (ATPase Na+/K+ transporting subunit alpha 1): CDH1-null / parental viability ratio = 0.84
COL9A3 (collagen type IX alpha 3 chain): CDH1-null / parental viability ratio = 1.25
SEZ6 (seizure related 6 homolog): CDH1-null / parental viability ratio = 0.61
TUBGCP2 (tubulin gamma complex component 2): CDH1-null / parental viability ratio = 1.45
VWA3B (von Willebrand factor A domain containing 3B): CDH1-null / parental viability ratio = 0.98
S100A8 (S100 calcium binding protein A8): CDH1-null / parental viability ratio = 1.23
CEP97 (centrosomal protein 97): CDH1-null / parental viability ratio = 1.05
SACK1B (scaffolding CK1 anchoring protein B): CDH1-null / parental viability ratio = 1.32
ATP7B (ATPase copper transporting beta): CDH1-null / parental viability ratio = 1.23
ACTR5 (actin related protein 5): CDH1-null / parental viability ratio = 1.28
GDA (guanine deaminase): CDH1-null / parental viability ratio = 1.12
ZNF419 (zinc finger protein 419): CDH1-null / parental viability ratio = 0.93
CD2 (CD2 molecule): CDH1-null / parental viability ratio = 1.32
SLC39A1: CDH1-null / parental viability ratio = 1.01
PRPSAP2 (phosphoribosyl pyrophosphate synthetase associated protein 2): CDH1-null / parental viability ratio = 0.99
KIF3B (kinesin family member 3B): CDH1-null / parental viability ratio = 1.05
SCT (secretin): CDH1-null / parental viability ratio = 1.18
TKFC (triokinase and FMN cyclase): CDH1-null / parental viability ratio = 0.93
VTCN1 (V-set domain containing T cell activation inhibitor 1): CDH1-null / parental viability ratio = 0.81
GPRC5B (G protein-coupled receptor class C group 5 member B): CDH1-null / parental viability ratio = 1.54
SERPINB3 (serpin family B member 3): CDH1-null / parental viability ratio = 1.01

Targets listed so far whose target name starts with C or c:
COL9A3 (collagen type IX alpha 3 chain): CDH1-null / parental viability ratio = 1.25
CEP97 (centrosomal protein 97): CDH1-null / parental viability ratio = 1.05
CD2 (CD2 molecule): CDH1-null / parental viability ratio = 1.32

Further reagents:
APOF (apolipoprotein F): CDH1-null / parental viability ratio = 1.14
SLC39A7: CDH1-null / parental viability ratio = 1.33
MRPS23 (mitochondrial ribosomal protein S23): CDH1-null / parental viability ratio = 0.88
SCYL2 (SCY1 like pseudokinase 2): CDH1-null / parental viability ratio = 1.11
MYO3B (myosin IIIB): CDH1-null / parental viability ratio = 0.89
ADAMTS16 (ADAM metallopeptidase with thrombospondin type 1 motif 16): CDH1-null / parental viability ratio = 1.07
NUDT18 (nudix hydrolase 18): CDH1-null / parental viability ratio = 1
CCDC174 (coiled-coil domain containing 174): CDH1-null / parental viability ratio = 0.91
EIF5B (eukaryotic translation initiation factor 5B): CDH1-null / parental viability ratio = 1.3
ACTL8 (actin like 8): CDH1-null / parental viability ratio = 0.93
SYF2 (SYF2 pre-mRNA splicing factor): CDH1-null / parental viability ratio = 1.11
XAGE1B (X antigen family member 1B): CDH1-null / parental viability ratio = 0.92
TMEM218 (transmembrane protein 218): CDH1-null / parental viability ratio = 1.42
GSDMB (gasdermin B): CDH1-null / parental viability ratio = 0.89
DECR2 (2,4-dienoyl-CoA reductase 2): CDH1-null / parental viability ratio = 0.93
PPP1R1B (protein phosphatase 1 regulatory inhibitor subunit 1B): CDH1-null / parental viability ratio = 1.31
AMPD2 (adenosine monophosphate deaminase 2): CDH1-null / parental viability ratio = 0.71
NDUFB3 (NADH:ubiquinone oxidoreductase subunit B3): CDH1-null / parental viability ratio = 0.76
PRAMEF8 (PRAME family member 8): CDH1-null / parental viability ratio = 1.04
ZBTB46 (zinc finger and BTB domain containing 46): CDH1-null / parental viability ratio = 0.84
SHISA3 (shisa family member 3): CDH1-null / parental viability ratio = 1.3
